The results in this text go back to PMC4977710.

Amino acid sequences for entries named in this document (tags omitted). A change or cut given only in a name is not applied to a line headed by its entry.
UniProt Q5CSA5: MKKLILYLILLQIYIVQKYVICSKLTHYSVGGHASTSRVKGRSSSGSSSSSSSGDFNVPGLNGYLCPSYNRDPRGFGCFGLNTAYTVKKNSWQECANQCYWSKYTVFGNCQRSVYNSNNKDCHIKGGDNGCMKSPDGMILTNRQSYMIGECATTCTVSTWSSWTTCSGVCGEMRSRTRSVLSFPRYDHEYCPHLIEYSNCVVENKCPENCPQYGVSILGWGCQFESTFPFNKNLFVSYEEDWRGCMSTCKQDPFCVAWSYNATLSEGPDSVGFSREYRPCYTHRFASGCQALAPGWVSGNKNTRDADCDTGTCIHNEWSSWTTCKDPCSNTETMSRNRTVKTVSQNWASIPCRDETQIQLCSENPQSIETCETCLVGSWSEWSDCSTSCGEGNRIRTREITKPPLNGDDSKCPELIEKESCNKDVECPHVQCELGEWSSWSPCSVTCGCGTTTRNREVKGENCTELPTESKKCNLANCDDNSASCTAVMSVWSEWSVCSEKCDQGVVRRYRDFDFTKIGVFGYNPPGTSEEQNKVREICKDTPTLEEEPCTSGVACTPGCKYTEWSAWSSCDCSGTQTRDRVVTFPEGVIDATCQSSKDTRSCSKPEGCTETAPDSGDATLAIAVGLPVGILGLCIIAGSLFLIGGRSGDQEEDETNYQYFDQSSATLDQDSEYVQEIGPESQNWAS

These are yes or no findings as the source states them, for the method shown. Binding calls can cover weak binding; strength is not graded here.

Experiment [1] concerns the target Cryptosporidium parvum rhomboid 1 (pGBKT7-CpROM1) (Cryptosporidium parvum) (UniProt F0X528). Kind of experiment: two-hybrid; Matchmaker GAL4 system, bait (pGBKT7) and prey (pGADT7) plasmids co-transformed into yeast AH109, 30 °C; growth on SD/-Trp/-His/-Leu/-Ade and β-galactosidase activity assay.
Experiment [2] has as its target T1, Toxoplasma gondii rhomboid 2 (pGBKT7-TgROM2) (Toxoplasma gondii) (UniProt Q695T9).
T1 sequence: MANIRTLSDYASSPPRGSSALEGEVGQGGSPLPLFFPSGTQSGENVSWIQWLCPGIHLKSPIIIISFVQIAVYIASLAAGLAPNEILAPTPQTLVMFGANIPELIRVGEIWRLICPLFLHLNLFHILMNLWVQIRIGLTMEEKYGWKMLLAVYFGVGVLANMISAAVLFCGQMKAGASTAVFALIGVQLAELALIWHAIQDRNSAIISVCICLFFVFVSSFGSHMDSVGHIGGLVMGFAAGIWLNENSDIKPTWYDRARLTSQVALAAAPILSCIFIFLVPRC
The description is as above.

Turning to “A-T domain (Ala1641-Thr1816) of CpGP900 (pGADT7-CpGP900) (from UniProt O96503) (domain or fragment)”, in experiment [1], the binding result is “binds”. With “I-S domain (Ile148-Ser687) of CpTRAP-C1 (pGADT7-CpTRAP-C1) (from UniProt Q5CSA5) (domain or fragment)”, the binding result in experiment [1] was “no binding”; in experiment [2], “binds”.
